Values quoted from earlier work in PMC7307925, “Human Serum Albumin Binding in a Vial: A Novel UV-pH Titration Method To Assist Drug Design” (Journal of Medicinal Chemistry, 2020).

Test system: human serum albumin (HSA)
Details: 49 (SI ref 1,2); cited from earlier work

COC(=O)C1=C(C)NC(C)=C(C(=O)OC)C1c1ccccc1[N+](=O)[O-] [Nifedipine]
HSA% (HPLC), literature data: 69.5%
